Some of the results follow.
Compound: CC1Cc2ccccc2N1C(=O)C1CCCN(C1)C(=O)CCl (mixture of isomers) [TRIM25 ligand 11 (diastereomer mixture)]
Experiment: probe-labelled cysteine peptide fold change vs DMSO (competition) (log2 fold change); higher = less target engagement (more negative = stronger competition)
Conditions: THP-1, incubation time: 4 h
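Further: competitive chemoproteomic profiling in live THP-1 cells with an iodoacetamide desthiobiotin (IA-DTB) probe, comparing probe-labelled peptide intensities in compound-treated cells against DMSO-treated controls.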

The chains behind the UniProt entries cited, without tags or fusion partners. Where a name states a change or a piece, a line headed by the entry shows the natural chain unless it says otherwise.
UniProt Q8TCF1: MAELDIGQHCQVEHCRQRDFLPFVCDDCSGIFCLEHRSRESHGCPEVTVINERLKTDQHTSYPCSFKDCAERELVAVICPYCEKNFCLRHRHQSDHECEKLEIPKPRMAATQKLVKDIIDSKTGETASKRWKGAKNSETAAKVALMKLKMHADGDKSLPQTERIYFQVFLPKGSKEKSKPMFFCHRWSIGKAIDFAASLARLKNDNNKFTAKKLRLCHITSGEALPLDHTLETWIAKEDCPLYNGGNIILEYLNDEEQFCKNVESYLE
UniProt Q9H6S0: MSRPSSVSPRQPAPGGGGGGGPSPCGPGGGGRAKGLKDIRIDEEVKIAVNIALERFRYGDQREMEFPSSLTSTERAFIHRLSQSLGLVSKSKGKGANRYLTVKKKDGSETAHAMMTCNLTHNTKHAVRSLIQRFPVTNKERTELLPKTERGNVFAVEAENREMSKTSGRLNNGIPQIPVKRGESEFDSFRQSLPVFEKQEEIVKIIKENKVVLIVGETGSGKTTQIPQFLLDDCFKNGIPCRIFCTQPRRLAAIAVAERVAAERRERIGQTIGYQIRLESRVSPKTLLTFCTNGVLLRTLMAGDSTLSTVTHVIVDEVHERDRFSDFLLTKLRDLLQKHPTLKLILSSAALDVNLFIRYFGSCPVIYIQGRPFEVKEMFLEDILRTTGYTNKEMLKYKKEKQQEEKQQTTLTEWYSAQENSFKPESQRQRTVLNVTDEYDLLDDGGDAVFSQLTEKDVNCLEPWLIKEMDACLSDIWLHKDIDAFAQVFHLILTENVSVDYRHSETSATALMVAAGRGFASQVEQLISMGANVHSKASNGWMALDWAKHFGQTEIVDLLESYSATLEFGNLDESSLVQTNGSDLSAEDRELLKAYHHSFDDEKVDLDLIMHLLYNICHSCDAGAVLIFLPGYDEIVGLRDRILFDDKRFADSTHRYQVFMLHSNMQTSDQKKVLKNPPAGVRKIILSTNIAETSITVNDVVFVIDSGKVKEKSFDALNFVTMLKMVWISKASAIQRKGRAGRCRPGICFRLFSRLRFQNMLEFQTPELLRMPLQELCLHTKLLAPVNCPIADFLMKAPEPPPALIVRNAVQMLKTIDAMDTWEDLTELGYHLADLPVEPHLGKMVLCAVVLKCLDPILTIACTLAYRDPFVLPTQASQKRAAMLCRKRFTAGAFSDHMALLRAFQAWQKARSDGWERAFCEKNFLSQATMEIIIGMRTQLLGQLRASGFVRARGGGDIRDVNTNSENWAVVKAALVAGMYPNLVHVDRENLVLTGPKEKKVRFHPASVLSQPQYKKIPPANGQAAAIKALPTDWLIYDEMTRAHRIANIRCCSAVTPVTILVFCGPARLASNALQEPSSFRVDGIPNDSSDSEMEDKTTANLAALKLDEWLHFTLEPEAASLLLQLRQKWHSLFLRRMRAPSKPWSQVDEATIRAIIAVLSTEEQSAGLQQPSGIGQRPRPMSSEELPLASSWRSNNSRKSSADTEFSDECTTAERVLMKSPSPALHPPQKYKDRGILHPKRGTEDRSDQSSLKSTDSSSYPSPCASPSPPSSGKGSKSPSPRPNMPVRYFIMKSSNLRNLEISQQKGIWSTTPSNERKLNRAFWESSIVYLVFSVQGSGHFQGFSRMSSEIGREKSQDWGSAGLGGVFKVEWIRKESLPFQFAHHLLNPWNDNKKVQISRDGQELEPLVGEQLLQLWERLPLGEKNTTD
UniProt Q96QU8: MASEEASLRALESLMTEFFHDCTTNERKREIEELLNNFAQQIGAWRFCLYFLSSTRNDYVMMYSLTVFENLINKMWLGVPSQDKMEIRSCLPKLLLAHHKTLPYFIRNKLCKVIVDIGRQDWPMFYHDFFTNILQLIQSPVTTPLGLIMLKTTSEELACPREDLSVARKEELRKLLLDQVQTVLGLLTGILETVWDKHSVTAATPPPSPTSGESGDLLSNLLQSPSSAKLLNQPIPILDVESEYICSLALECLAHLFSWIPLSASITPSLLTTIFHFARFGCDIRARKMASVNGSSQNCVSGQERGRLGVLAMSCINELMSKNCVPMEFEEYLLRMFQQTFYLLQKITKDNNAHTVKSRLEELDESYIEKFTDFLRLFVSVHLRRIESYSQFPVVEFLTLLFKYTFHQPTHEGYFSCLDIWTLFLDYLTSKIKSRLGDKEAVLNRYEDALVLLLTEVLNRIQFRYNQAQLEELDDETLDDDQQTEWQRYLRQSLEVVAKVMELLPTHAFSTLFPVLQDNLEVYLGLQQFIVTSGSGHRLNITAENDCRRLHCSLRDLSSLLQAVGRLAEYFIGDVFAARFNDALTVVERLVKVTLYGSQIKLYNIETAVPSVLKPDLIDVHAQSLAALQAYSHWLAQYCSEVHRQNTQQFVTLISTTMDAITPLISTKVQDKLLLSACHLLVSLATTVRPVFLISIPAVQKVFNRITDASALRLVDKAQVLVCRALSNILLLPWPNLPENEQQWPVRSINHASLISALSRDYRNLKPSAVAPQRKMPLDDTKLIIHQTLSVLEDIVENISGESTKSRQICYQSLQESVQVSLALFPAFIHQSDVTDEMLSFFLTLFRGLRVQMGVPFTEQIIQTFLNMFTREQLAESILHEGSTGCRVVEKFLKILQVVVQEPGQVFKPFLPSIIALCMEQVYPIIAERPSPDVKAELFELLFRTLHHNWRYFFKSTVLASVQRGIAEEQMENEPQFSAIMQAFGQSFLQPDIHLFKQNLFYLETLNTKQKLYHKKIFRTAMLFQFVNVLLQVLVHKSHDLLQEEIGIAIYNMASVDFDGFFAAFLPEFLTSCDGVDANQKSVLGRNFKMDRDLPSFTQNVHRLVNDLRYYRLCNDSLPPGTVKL
UniProt O14980, whole entry, looked up: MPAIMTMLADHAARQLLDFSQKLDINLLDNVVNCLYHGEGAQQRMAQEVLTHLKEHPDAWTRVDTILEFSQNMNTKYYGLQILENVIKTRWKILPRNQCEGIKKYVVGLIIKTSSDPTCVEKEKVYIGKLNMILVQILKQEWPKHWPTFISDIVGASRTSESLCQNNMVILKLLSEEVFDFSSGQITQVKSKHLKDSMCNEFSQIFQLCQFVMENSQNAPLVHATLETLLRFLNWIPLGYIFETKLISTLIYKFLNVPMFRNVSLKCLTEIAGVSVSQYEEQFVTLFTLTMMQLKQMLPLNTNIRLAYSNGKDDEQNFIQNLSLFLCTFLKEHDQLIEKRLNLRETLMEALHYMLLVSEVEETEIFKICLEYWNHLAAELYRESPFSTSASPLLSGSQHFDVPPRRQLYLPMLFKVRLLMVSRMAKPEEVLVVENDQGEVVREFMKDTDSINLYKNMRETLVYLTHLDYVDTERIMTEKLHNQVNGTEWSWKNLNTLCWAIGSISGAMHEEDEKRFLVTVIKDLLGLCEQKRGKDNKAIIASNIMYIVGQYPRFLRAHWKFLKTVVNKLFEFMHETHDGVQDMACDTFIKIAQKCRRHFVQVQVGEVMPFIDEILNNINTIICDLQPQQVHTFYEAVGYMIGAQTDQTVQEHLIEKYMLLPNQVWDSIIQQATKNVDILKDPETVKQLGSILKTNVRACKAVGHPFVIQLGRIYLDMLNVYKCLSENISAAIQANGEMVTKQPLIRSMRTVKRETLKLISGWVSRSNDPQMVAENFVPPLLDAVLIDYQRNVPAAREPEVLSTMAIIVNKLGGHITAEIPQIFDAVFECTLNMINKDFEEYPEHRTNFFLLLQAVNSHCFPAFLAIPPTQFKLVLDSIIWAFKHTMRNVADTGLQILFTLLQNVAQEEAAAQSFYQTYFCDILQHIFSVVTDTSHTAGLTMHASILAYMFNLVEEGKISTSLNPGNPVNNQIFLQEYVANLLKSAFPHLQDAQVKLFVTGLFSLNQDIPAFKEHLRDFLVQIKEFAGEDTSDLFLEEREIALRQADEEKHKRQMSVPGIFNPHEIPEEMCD
UniProt P18887, whole entry, looked up: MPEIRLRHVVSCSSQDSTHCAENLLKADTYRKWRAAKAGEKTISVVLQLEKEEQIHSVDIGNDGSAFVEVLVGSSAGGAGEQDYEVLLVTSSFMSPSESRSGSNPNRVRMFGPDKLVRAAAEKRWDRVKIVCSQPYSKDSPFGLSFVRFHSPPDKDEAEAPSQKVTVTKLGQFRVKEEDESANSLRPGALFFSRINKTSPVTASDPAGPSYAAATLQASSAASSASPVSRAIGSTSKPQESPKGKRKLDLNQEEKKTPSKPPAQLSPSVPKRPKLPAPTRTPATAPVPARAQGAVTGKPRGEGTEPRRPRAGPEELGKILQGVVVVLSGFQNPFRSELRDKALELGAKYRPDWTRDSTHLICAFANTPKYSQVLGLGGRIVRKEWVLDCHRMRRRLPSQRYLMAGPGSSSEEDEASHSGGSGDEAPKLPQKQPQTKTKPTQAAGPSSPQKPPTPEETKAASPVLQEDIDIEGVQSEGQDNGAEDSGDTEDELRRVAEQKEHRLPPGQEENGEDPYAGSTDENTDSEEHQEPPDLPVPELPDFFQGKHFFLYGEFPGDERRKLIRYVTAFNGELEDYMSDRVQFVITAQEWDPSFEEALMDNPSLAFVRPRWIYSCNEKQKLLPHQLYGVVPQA
UniProt O15498: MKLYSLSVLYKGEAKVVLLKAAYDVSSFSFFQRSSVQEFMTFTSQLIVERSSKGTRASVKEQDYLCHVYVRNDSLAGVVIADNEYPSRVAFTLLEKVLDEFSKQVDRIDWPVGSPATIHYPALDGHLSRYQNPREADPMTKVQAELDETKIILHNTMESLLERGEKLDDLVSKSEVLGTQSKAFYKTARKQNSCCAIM
UniProt Q8IZH2: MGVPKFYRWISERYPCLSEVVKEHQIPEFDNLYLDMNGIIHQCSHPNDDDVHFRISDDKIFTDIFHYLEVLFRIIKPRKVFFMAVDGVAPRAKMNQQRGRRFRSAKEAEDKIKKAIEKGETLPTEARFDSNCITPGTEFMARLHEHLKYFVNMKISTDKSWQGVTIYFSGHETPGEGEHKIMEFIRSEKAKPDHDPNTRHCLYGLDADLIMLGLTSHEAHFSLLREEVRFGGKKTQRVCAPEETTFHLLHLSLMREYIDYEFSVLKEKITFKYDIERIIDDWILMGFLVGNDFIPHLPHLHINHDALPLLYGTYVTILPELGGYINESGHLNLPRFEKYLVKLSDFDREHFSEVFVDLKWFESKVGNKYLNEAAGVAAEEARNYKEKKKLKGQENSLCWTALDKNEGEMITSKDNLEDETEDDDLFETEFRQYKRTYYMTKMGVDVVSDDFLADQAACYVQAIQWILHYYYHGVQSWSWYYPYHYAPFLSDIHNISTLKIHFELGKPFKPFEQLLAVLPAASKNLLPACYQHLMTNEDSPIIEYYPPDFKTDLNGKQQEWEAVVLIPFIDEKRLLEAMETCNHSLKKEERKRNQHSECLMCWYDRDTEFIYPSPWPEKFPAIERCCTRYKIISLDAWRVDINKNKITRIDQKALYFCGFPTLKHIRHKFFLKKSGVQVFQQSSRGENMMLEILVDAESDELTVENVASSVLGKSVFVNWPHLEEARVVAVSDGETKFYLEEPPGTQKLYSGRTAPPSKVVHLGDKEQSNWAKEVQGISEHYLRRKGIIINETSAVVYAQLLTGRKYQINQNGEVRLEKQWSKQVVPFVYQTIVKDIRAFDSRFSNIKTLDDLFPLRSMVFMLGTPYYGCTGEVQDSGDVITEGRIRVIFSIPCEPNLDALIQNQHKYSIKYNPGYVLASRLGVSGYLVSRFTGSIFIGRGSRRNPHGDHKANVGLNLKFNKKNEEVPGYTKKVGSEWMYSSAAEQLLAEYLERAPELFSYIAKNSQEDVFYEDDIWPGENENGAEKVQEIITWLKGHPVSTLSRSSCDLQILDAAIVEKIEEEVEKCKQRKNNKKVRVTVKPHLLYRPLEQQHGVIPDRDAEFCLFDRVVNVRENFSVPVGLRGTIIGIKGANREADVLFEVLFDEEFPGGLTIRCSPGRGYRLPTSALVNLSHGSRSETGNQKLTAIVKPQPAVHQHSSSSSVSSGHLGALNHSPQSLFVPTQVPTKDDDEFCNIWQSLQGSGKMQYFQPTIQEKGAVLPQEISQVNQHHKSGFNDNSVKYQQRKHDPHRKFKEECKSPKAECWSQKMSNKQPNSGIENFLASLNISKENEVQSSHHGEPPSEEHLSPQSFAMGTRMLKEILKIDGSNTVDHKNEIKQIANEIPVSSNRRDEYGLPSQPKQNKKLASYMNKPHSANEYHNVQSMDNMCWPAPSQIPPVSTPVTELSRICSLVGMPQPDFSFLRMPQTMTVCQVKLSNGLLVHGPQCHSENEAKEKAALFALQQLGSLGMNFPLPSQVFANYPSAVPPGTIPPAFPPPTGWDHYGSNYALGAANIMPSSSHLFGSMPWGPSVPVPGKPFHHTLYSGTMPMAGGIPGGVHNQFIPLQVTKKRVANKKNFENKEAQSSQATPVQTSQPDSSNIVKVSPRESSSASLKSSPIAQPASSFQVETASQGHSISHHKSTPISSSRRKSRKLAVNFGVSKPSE

Row | Target | probe-labelled cysteine peptide fold change (10 µM) | probe-labelled cysteine peptide fold change (50 µM)
1 | ZFAND1_Q8TCF1_10+15_AELDIGQHCQVEHCR (UniProt Q8TCF1) | -0.0392 | 0.251
2 | YTHDC2_Q9H6S0_788_LLAPVNCPIADFLMK (UniProt Q9H6S0) | -0.0385 | -0.147
3 | XRCC5_P13010_493_LFQCLLHR (UniProt P13010) | -0.143 | 0.00588
4 | YTHDC2_Q9H6S0_472_EMDACLSDIWLHK (UniProt Q9H6S0) | 0.0772 | 0.116
5 | YWHAQ_P27348_134_YLAEVACGDDR (UniProt P27348) | 0.0689 | 0.0518
6 | XPO6_Q96QU8_299_MASVNGSSQNCVSGQER (UniProt Q96QU8) | 0.0986 | 0.0125
7 | ZCCHC3_Q9NUD5_238_REQEDCWENFVVLGR (UniProt Q9NUD5) | 0.192 | 0.112
8 | XPO1_O14980_528_DLLGLCEQKR (UniProt O14980) | -0.0047 | -0.00928
9 | ZBED4_O75132_1124_FLGCPPSIVPSEK (UniProt O75132) | 0.00864 | 0.0176
10 | YTHDC2_Q9H6S0_25_QPAPGGGGGGGPSPCGPGGGGR (UniProt Q9H6S0) | -0.253 | -0.342
11 | XRCC1_P18887_389_EWVLDCHR (UniProt P18887) | -0.00129 | 0.0797
12 | XPO1_O14980_498_NLNTLCWAIGSISGAMHEEDEKR (UniProt O14980) | 0.0331 | -0.0738
13 | YKT6_O15498_66_EQDYLCHVYVR (UniProt O15498) | 0.048 | 0.0716
14 | XRN1_Q8IZH2_16_YPCLSEVVK (UniProt Q8IZH2) | 0.0639 | 0.0149
15 | XPO6_Q96QU8_723_AQVLVCR (UniProt Q96QU8) | -0.0282 | 0.134

A different layout for some results above.

| Row | Target | probe-labelled cysteine peptide fold change (10 µM) | probe-labelled cysteine peptide fold change (50 µM) |
| --- | --- | --- | --- |
| 10 | YTHDC2_Q9H6S0_25_QPAPGGGGGGGPSPCGPGGGGR (UniProt Q9H6S0) | -0.253 | -0.342 |
| 11 | XRCC1_P18887_389_EWVLDCHR (UniProt P18887) | -0.00129 | 0.0797 |

— the supplement of paper PMC12067093, “Discovery and optimisation of a covalent ligand for TRIM25 and its application to targeted protein ubiquitination” (Chemical Science, 2025)
